In paper PMC10848004 (Saudi Pharmaceutical Journal : SPJ, 2024):

How the values were obtained:
[1] = system: human corneal epithelial cell line (HCEC); assay: Cell viability; format: cell-based; conditions: 96 h, read-out: IC50 HCEC
HT-29 cells = assay: Cell viability; format: cell-based; conditions: Homo sapiens, HT-29, 96 h, read-out: IC50 HT-29

Question: For CC(=O)Nc1nnc(S(N)(=O)=O)s1 [AAZ, Acetazolamide], which IC50 [1] is on record?
Answer: Its IC50 is 88 µM.

Question: And the IC50 (HT-29 cells)?
Answer: The IC50 was > 100 µM.
